The values below come from US20210196779A1, “Compositions and Methods for Treating Steroid Hormone-Related Diseases or Disorders” (YALE UNIVERSITY, priority 2018, published 2021).

Read-outs that look alike come from different tables or passages of the source.

Common to all, as to type: cell-based
One assay deals with PC3 cells. Put plainly: Cell growth assay, PC3 cells. The following applies: Homo sapiens, PC-3, 96 h, 4 days, read-out: IC50 for the inhibition of growth. The procedure: (§1) 20,000 cells in 1 ml of medium (phenol red free RPMI1640, 5% charcoal-dialysis FBS, 50 μg/ml Kanamyacin) were seeded per well of a 24-well plate and incubated in a 37° C. incubator with 5% CO2 overnight. Different concentrations of herbal extract were added to each well in order to have final concentrations from 50 μg/ml to 500 μg/ml. For prostate cancer cells, DHT (25 nM) was used to stimulate androgen receptor activity. For glucocorticoid receptor overexpressed LNCaP cells, dexamethasone (50 nM) was used to stimulate glucocorticoid receptor activity. For all breast cancer cells, E2 (10 nM) was used to stimulate ER activity. Control medium without any steroid hormone was used as a control setting. After 4 days of incubation, cells were fixed and stained for 2 h with 0.5% methylene blue in 50% ethanol, followed by washing with tap water to remove unbound dye. Plates were air dried and then cells were dissolved in 1% sarkosyl (sodium lauroyl sarcosinate) by shaking at room temperature for 3 h. Cell growth was quantified based on the amount of methylene blue adsorbed by the cells as measured by a spectrophotometer (Molecular Devices) at 595 nm. All experiments were performed in triplicate wells and were repeated at least three times.

In the next assay the test system is 22Rv1 cells. Put plainly: Cell growth assay, 22Rv1 prostate cancer cells. The following applies: Homo sapiens, 22Rv1, 96 h, 4 days, read-out: IC50 for the inhibition of growth. The procedure:
(§2) 22RV1 or LNCaP prostate cancer cells were grown in corning T75 cell culture flasks in RPMI1640 medium supplemented with 5% FBS, 50 μg/ml Kanamycin in a 37° C., 5% CO2 incubator.
as §1

The next assay concerns LNCaP cells. Put plainly: Cell growth assay, LNCaP prostate cancer cells. As to conditions: Homo sapiens, 96 h, 4 days, read-out: IC50 for the inhibition of growth. Here is the method: as §2
as §1, with “All experiments were performed in triplicate wells and were repeated at least three times.” left out

The subject of assay [1] is LNCaP-GR (GR overexpressing) cells. The experiment in a line: Cell growth assay, GR overexpressing LNCaP cells. The following applies: Homo sapiens, 96 h, 4 days, read-out: IC50 for the inhibition of growth. Here is the method:
as §1

In the case of `CNC(=O)c1ccc(N2C(=S)N(c3ccc(C#N)c(C(F)(F)F)c3)C(=O)C2(C)C)cc1F` [Enzalutamide, reference compound], the IC50 (commonly the point on the concentration scale where inhibition reaches its midpoint) was greater than 5 µM with PC3 cells (PC3, no DEX); greater than 5 µM in the assay on PC3 cells (PC3 w/DEX 50 nM); greater than 5 µM in the assay on 22Rv1 cells (22Rv1, no DHT/DEX); greater than 5 µM in the assay with 22Rv1 cells (22Rv1 w/DEX 50 nM); greater than 5 µM in the assay with 22Rv1 cells (22Rv1 w/DHT 25 nM); 0.5 µM with LNCaP cells (LNCaP w/DHT 2 nM). For the same compound, the IC50 is greater than 5 µM with LNCaP cells (no DHT); greater than 5 µM in assay [1] (LNCaP-GR w/DEX 50 nM); 0.5 µM in assay [1] (LNCaP-GR w/DHT 2 nM); greater than 5 µM in assay [1] (LNCaP-GR, no DHT/DEX).
